No constants are given. Whether binding was seen depends on the method and setting. Binding seen in cells or lysates may run through a third protein. A yes stands for co-enrichment or nearness to the bait. Other partners may have been found.
Molecular target: TnBVANK1 protein, V5-tagged (from pIZT/V5-His-ANK1) (Toxoneuron nigriceps bracovirus (TnBV))
Assay: affinity purification with mass spectrometry; total protein extract of S2 cells stably expressing V5-tagged TnBVANK1, pre-cleaned on underivatised agarose beads; immunoprecipitated overnight on anti-V5 agarose-conjugated antibody; washed with lysis buffer with 150 mmol/l NaCl; eluted with V5 …; SDS-PAGE bands identified by LC-MS/MS; differential analysis against control S2 cells

Binder | binding
NF-κB p110 subunit (protein, UniProt Q94527-1 1-971) MNMNQYYDLDNGKNVMFMNDASSTSGYSSSTSPNSTNRSFSPAHSPKTMELQTDFANLNLPGGNSPHQPPMANSPYQNQLLNNGGICQLGATNLINSTGVSFGVANVTSFGNMYMDHQYFVPAPATVPPSQNFGYHQNGLASDGDIKHVPQLRIVEQPVEKFRFRYKSEMHGTHGSLNGANSKRTPKTFPEVTLCNYDGPAVIRCSLFQTNLDSPHSHQLVVRKDDRDVCDPHDLHVSKERGYVAQFINMGIIHTAKKYIFEELCKKKQDRLVFQMNRRELSHKQLQELHQETEREAKDMNLNQVRLCFEAFKIEDNGAWVPLAPPVYSNAINNRKSAQTGELRIVRLSKPTGGVMGNDELILLVEKVSKKNIKVRFFEEDEDGETVWEAYAKFRESDVHHQYAIVCQTPPYKDKDVDREVNVYIELIRPSDDERSFPALPFRYKPRSVIVSRKRRRTGSSANSSSSGTESSNNSLDLPKTLGLAQPPNGLPNLSQHDQTISEEFGREKHLNEFIASEDFRKLIEHNSSDLEKICQLDMGELQHDGHNRAEVPSHRNRTIKCLDDLFEIYKQDRISPIKISHHKVEKWFIEHALNNYNRDTLLHEVISHKKDKLKLAIQTIQVMNYFNLKDVVNSTLNADGDSALHVACQQDRAHYIRPLLGMGCNPNLKNNAGNTPLHVAVKEEHLSCVESFLNGVPTVQLDLSLTNDDGLTPLHMAIRQNKYDVAKKLISYDRTSISVANTMDGNNALHMAVLEQSVELLVLILDAQNENLTDILQAQNAAGHTPLELAERKANDRVVQLLKNVYPEKGELAMTWIPCKVKEEIDSSSDESSDAGQLEIKSEEMDIETKDEDSVELDLSSGPRRQKDESSRDTEMDNNKLQLLLKNKFIYDRLCSLLNQPLGHGSDPQDRKWMQLARQTHLKQFAFIWLGAEDLLDHVKRKGASVEFSTFARALQAVDPQAYALLVNPT | binds
ALG-2 interacting protein X (protein, UniProt Q9VB05 1-836) MSKFLGVPLKKPSEVDVIKPLNNLIQSTYNGASEEEKGKYGEAVNEFSKQRNTAIWKFFEKYEASLEIVYAYYDQICALETKISVSELQIPFKWKDAFDKGSIFGGKISLTHTSLLYEKVCVLFNIAALQSNIAANQSLDSDDGLKLTIKLLQQSAGIFQYLKGATPAAVPSEPTPDLSQDTLTVLQALMVAQAQEVFILKAIKDNLKDQIIAKLCCQAEESYADVLRAMQKESVRSLWEKEWIPTIAGKQAGFHALTQLYQSLVCRAAKKIGEEIARLRNAIDLFKAAQTRSGNETYLDEYFSRAKRNLTESTKDNEFIYNEIIPELSTLTSPGKAQLAKPLPIAVPLAENFKDIFSSLVPVELHRALTASDMRRNEIVNVEIMKLREATQTLNAVLASLNLPAAVETADGNSGLPPSLKEKANEVRQKGGIENVQTMLKDLPELLNRNREILDETERLLDEERDSDNQLRAQFKDRWTRISSDKLTEMFRTNAKKYREVITNAIEADKVVRQKFEANQKGIQLLSLPPDQIQQSLPSASGSVDPNCSSVQRLKKLMDDVETIKAEREAIESELKGATFNMKDEFLIALQKDGAIDEPALSLARIGQVLNPLQQQVRESVERQQSLVSEIQSAHGAFVSETGSCGSSRDTLYQELATAFDSYIELSGNLQEGTKFYNDLTQLLVVFQNKISDFVFARKTEKEELLKDLTTESSRQACPATPALPSHYASTSGSGSDIPPGSAPSVPPAASTANIPYPAQVQGMPIPYGAQPGVPYPAYVPAPMPQSFNPYATLPYPGNYQYQGFPQGPPPGHYGTYPGSYANQQGGYPNQKPPGW | binds

— paper PMC5603617
